Experimental data as given in PMC10464048.
No constants are given. Whether binding was seen depends on the method and setting. In cells and extracts the contact can be indirect. Some results given as binding are weak or reduced against the parent protein; the word gives no strength.

The chains behind the UniProt entries cited, without tags or fusion partners.
UniProt P62993: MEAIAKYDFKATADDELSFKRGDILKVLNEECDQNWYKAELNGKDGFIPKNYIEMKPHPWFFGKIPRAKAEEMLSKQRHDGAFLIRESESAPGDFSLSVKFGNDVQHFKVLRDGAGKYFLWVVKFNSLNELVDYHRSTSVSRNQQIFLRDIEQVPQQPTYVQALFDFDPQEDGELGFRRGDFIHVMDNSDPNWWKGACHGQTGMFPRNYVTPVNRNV

Molecular target: T1, RING Finger Protein 173 (UniProt Q86UD3)
T1 sequence: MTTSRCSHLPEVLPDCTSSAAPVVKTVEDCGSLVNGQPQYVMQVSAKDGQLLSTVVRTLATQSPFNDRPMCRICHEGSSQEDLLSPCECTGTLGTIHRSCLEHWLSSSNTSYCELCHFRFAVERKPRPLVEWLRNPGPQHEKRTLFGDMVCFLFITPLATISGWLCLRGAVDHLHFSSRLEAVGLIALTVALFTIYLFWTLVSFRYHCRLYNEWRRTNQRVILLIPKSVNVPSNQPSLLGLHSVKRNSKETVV
Experiment: co-IP; cell lysate incubated overnight with 5 ug primary antibody (FLAG; GRB2 or IgG), protein A agarose beads 3 h, three washes, Western blot

Question: How did the binding turn out when “Growth Factor Receptor Bound Protein 2 (from UniProt P62993 1-217)” was run?
Answer: binds
